Experiment [1] deals with T1, FtsHi4 (Arabidopsis thaliana) (UniProt F4KF14).
T1 sequence: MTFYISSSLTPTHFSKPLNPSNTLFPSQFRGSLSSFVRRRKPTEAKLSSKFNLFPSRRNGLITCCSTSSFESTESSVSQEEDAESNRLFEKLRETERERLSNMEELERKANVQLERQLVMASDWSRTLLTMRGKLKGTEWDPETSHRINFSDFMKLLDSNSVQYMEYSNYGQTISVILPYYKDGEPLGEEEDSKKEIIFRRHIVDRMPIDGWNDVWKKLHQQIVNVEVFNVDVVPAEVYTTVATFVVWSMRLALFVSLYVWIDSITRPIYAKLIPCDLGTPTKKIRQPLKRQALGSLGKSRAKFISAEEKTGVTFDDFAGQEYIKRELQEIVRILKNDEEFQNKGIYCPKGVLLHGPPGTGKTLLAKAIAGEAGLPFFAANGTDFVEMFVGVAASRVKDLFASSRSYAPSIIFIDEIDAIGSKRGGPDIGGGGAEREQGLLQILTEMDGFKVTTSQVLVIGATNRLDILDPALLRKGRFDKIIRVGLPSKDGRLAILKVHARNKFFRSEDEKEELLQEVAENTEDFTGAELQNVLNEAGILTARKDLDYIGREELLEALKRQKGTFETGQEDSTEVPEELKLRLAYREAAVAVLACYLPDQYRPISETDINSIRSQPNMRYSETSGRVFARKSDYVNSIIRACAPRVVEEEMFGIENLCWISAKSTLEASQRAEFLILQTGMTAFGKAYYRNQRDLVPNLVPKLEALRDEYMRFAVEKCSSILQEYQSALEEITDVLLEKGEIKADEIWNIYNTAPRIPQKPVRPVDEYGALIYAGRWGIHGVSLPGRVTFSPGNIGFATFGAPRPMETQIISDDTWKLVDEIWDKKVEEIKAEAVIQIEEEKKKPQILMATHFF
Put plainly: two-hybrid; Clontech system; baits in pGBKT7, preys in pGADT7; growth on -Ade/-His/-Leu/-Trp medium.

Experiment [2] concerns the target FtsHi2 (Arabidopsis thaliana) (UniProt A8MPR5). Described as above.

These are yes or no findings as the source states them, for the method shown. Some entries that bind do so weakly or less than the wild type.

B1: FtsHi4 (protein, UniProt F4KF14 1-855)
chain: T1 sequence
Consider B1, for which the binding result in experiment [1] was “binds”.

B2: FtsHi2 (protein, UniProt A8MPR5 1-876)
chain: MACRFPLHSSSPSQFLSPENRQRLPRNYPSISCQNNSATNVVHEDGDDNDKAKTNQVNLLAIPITLTIISASLAKPSFAAAKVTERKRTQKKPQEALTLEQLKAWSKDLPVVSNRIPYTDILSLKAEGKLKHVIKPPNLSLRQKAEPVLVVLEDSRVLRTVLPSLEGNKRFWEQWDELGIDVQCVNAYTPPVKRPPVPSPYLGFLWKVPAYMLTWVKPKKESKRAAELKRMREDFKRQRKEEIETMKEERVMMEKTMKAQKKQQERKKRKAVRKKKYEESLREARKNYRDMADMWARLAQDPNVATALGLVFFYIFYRVVVLNYRKQKKDYEDRLKIEKAEADERKKMRELEREMEGIEEEDEEVEEGTGEKNPYLQMAMQFMKSGARVRRASNKRLPEYLERGVDVKFTDVAGLGKIRLELEEIVKFFTHGEMYRRRGVKIPGGILLCGPPGVGKTLLAKAVAGEAGVNFFSISASQFVEIYVGVGASRVRALYQEARENAPSVVFIDELDAVGRERGLIKGSGGQERDATLNQLLVSLDGFEGRGEVITIASTNRPDILDPALVRPGRFDRKIFIPKPGLIGRMEILQVHARKKPMAEDLDYMAVASMTDGMVGAELANIVEIAAINMMRDGRTELTTDDLLQAAQIEERGMLDRKDRSLETWRQVAINEAAMAVVAVNFPDMKNIEFLTINPRAGRELGYVRVKMDHIKFKEGMLSRQSILDHITVQLAPRAADELWYGEDQLSTIWAETSDNARSAARSLVLGGLSDKHHGLNNFWVADRINDIDVEALRILNMCYERAKEILGRNRTLMDEVVEKLVQKKSLTKQEFFTLVELYGSSKPMPPSILELRKIKRLELEEMVLKLDMTTARNSS
With B2, the binding result in experiment [1] and in experiment [2] was “binds” throughout.

Source of the values: paper PMC4070914.
